Construct, isoform or probe ends are uncertain for at least one entry.
Key:
[1] = target: AGO2 PAZ domain (Homo sapiens) (UniProt Q9UKV8); assay: EMSA; details: stronger than to miR-1246; 20 nM probe, on ice 30 min; 5% native PAGE, 0.5x TBE, 100 V 50 min; recombinant protein; residues 224-350; DNA:RNA hybrid
hAGO2 (Homo sapiens) = hAGO2 (Homo sapiens) (UniProt Q9UKV8); assay: EMSA; details: 20 nM probe, on ice 30 min, 5% native PAGE, 0.5x TBE, 100 V 50 min, recombinant protein, residues 1-859

Chains of the proteins cited; added tags and fusions are not shown. Residues count along the entry.
UniProt Q9UKV8, 224-350: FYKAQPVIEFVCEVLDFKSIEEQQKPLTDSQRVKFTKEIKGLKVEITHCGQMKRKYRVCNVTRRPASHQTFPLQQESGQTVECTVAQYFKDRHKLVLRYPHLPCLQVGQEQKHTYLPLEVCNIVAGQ
UniProt Q9UKV8, whole entry: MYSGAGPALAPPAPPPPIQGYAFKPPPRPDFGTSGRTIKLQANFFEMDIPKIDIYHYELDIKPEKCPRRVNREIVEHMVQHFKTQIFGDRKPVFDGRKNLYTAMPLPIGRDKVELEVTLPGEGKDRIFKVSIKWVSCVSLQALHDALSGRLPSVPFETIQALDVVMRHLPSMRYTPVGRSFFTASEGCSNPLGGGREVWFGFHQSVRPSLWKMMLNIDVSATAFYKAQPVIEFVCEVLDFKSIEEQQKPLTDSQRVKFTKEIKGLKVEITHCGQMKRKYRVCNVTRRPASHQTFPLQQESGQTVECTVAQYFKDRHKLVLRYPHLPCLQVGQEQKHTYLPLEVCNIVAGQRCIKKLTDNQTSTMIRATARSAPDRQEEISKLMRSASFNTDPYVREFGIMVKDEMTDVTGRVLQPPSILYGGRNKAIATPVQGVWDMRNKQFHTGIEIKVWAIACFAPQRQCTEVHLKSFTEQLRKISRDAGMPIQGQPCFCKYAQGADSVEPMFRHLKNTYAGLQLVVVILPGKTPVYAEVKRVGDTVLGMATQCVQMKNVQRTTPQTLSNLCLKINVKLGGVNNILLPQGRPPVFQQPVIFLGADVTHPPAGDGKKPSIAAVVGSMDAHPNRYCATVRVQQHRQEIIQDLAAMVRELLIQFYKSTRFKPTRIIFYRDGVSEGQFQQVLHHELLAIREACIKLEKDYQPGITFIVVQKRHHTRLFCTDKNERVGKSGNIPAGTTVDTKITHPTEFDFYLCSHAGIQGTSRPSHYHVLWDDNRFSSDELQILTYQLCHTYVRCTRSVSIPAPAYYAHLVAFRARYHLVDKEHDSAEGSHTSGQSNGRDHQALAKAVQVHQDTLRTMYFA

Sequence	binding result [1]	Kd (hAGO2 (Homo sapiens); DNA:RNA hybrid) [µM]	Kd (hAGO2 (Homo sapiens)) [µM]
AAUGGAUUUUUGGAGCAGG / CCTGCTCCAAAAATCCATT [miR-1246/ssDNA hybrid]	binds	0.0247	
AAUGGAUUUUUGGAGCAGG / ATGACGCTGCCGAATTCTACCGCCCTGCTCCAAAAATCCATTTTTAGGTTCACCTCGTCCCTGGC / GCCAGGGACGAGGTGAACCTGGCCCGTTCGGGCGTAGTTCATTATGTAGAATTCGGCAGCGTCAT [R-loop analog containing miR-1246]			0.013

Source: paper PMC10999177
